Assay results published in PMC12147715.
These are yes or no findings as the source states them, for the method shown. In cells and extracts the contact can be indirect. Some binding calls cover weakened binding; strength is not graded here. Where a sequence is shown, tags or fusion partners need not be part of it. Blank lines part the entries; values can stand above or below the binder they belong to.

Key:
[1] = target: T1, GST–Ccdc13 (mouse) (mouse) (UniProt D3YV10); test: pull-down; in vitro GST pull-down, GST-Ccdc13 (mouse) with mouse Spef1
T1 sequence: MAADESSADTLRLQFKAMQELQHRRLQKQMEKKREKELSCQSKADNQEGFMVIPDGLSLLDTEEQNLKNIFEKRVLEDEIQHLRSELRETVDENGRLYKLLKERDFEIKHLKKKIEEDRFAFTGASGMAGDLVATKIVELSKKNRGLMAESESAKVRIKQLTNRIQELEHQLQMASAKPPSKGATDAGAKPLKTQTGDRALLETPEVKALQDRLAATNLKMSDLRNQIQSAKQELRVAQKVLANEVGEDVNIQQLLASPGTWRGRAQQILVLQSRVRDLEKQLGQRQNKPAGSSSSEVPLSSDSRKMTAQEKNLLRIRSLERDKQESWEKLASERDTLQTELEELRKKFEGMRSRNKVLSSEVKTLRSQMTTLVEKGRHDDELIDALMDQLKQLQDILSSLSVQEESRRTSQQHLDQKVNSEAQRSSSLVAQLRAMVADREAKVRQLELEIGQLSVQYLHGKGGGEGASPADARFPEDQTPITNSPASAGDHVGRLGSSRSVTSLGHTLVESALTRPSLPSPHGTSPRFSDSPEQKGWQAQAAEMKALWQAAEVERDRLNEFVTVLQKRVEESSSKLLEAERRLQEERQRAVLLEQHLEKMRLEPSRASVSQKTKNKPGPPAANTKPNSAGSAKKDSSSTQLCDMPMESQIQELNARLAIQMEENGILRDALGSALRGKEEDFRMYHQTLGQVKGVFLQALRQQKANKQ

[2] = target: T2, GFP–Spef1 (mouse) (mouse) (UniProt Q99JL1); test: co-IP; proteins transiently expressed in HEK293T cells, then co-immunoprecipitation
T2 sequence: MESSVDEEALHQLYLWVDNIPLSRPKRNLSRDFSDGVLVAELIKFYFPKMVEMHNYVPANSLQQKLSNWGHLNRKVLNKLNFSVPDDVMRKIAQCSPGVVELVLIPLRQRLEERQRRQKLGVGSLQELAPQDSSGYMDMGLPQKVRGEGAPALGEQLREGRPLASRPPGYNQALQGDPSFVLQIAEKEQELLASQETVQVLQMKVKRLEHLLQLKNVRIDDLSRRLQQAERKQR

binding [1]: binds
B1: Mouse Spef1, protein of the GST pull-down (protein, UniProt Q99JL1 1-234)
chain: T2 sequence

binding [2]: binds
B2: Mouse Ccdc13 expressed in HEK293T cells (protein, UniProt D3YV10 1-709)
chain: T1 sequence
